Experimental data taken from US20180362485A1, “N-HYDROXYFORMAMIDE COMPOUNDS AND COMPOSITIONS COMPRISING THEM FOR USE AS BMP l, TLL1 AND/OR TLL2 INHIBITORS” (GlaxoSmithKline Intellectual Property (No. 2) Limited, priority 2015, published 2018).
Structures can show the parent of a compound that is named as a salt. Some of these results come from one statement about several compounds together.

Experiment: Human plasma stability assay
Details: 37° C., within 24 hours

SMILES | conversion to a BMP1, TLL1 and/or TLL2 inhibitor in human plasma
CCCCC[C@@H](C(=O)NCNC(=O)c1ccc(-c2ccc(C(=O)N[C@@H](CC(=O)O)C(=O)O)c(OCC)c2)o1)[C@@H](CC)N(C=O)OC(=O)NC(C)(C)C [Example 74, (S)-2-(2-ethoxy-4-(5-(((4R,5R)-5-ethyl-6-formyl-10,10-dimethyl-3,8-dioxo-4-pentyl-7-oxa-2,6,9-triazaundecyl)carbamoyl)furan-2-yl)benzamido) succinic acid] | convert to a BMP1, TLL1 and/or TLL2 inhibitor within 24 hours
CCCCC[C@@H](C(=O)NCNC(=O)c1ccc(-c2cc(OCC)cc(P(=O)(O)O)c2)o1)[C@@H](CC)N(C=O)OC(=O)NC(C)(C)c1ccccc1 [Example 56, (3-ethoxy-5-(5-(((4R,5R)-5-ethyl-6-formyl-10-methyl-3,8-dioxo-4-pentyl-10-phenyl-7-oxa-2,6,9-triazaundecyl)carbamoyl)furan-2-yl)phenyl)phosphonic acid] | convert to a BMP1, TLL1 and/or TLL2 inhibitor within 24 hours
CCCCC[C@@H](C(=O)NCNC(=O)c1ccc(-c2ccc(C(=O)N[C@@H](CC(=O)O)C(=O)O)c(OCC(=O)O)c2)o1)[C@@H](CC)N(C=O)OC(=O)c1ccccc1N [Example 22, (S)-2-(4-(5-((((R)-2-((R)-1-(N-((2-aminobenzoyl)oxy) formamido)propyl)heptanamido)methyl)carbamoyl)furan-2-yl)-2-(carboxymethoxy)benzamido) succinic acid] | convert to a BMP1, TLL1 and/or TLL2 inhibitor within 24 hours
CCCCC[C@@H](C(=O)NCNC(=O)c1ccc(-c2ccc(C(=O)N[C@@H](CC(=O)O)C(=O)O)c(OCC)c2)o1)[C@@H](CC)N(C=O)OC(=O)c1ccc([N+](=O)[O-])cc1 [Example 120, (S)-2-(2-ethoxy-4-(5-((((R)-2-((R)-1-(N-((4-nitrobenzoyl)oxy) formamido)propyl)heptanamido)methyl)carbamoyl)furan-2-yl)benzamido) succinic acid] | convert to a BMP1, TLL1 and/or TLL2 inhibitor within 24 hours
CCCCC[C@@H](C(=O)NCNC(=O)c1ccc(-c2cc(OCC)cc(P(=O)(O)O)c2)o1)[C@@H](CC)N(C=O)OC(=O)c1ccc2c(c1)OCCN2C [Example 60, (3-ethoxy-5-(5-((((R)-2-((R)-1-(N-((4-methyl-3,4-dihydro-2H-benzo[b][1,4]oxazine-7-carbonyl)oxy) formamido)propyl)heptanamido)methyl)carbamoyl)furan-2-yl)phenyl)phosphonic acid, 2Ammonia salt] | convert to a BMP1, TLL1 and/or TLL2 inhibitor within 24 hours
CCCCC[C@@H](C(=O)NCNC(=O)c1ccc(-c2ccc(C(=O)N[C@@H](CC(=O)O)C(=O)O)c(OCC)c2)o1)[C@@H](CC)N(C=O)OC(=O)c1ccc(CN)cc1 [Example 209, (S)-2-(4-(5-((((R)-2-((R)-1-(N-((4-(aminomethyl)benzoyl)oxy) formamido)propyl)heptanamido)methyl)carbamoyl)furan-2-yl)-2-ethoxybenzamido) succinic acid] | convert to a BMP1, TLL1 and/or TLL2 inhibitor within 24 hours
CCCCC[C@@H](C(=O)NCNC(=O)c1ccc(-c2ccc(C(=O)N[C@@H](CC(=O)O)C(=O)O)c(OCC(=O)O)c2)o1)[C@@H](CC)N(C=O)OC(=O)Nc1ccccc1 [Example 90, (S)-2-(2-(carboxymethoxy)-4-(5-((((R)-2-((R)-1-(N-((phenylcarbamoyl)oxy)formamido)propyl)heptanamido)methyl)carbamoyl)furan-2-yl)benzamido) succinic acid] | convert to a BMP1, TLL1 and/or TLL2 inhibitor within 24 hours
CCCCC[C@@H](C(=O)NCNC(=O)c1ccc(-c2ccc(C(=O)N[C@@H](CC(=O)O)C(=O)O)c(OCC)c2)o1)[C@@H](CC)N(C=O)OC(=O)c1ccccc1C(C)C [Example 98, (S)-2-(2-ethoxy-4-(5-((((R)-2-((R)-1-(N-((2-isopropylbenzoyl)oxy) formamido)propyl)heptanamido)methyl)carbamoyl)furan-2-yl)benzamido) succinic acid] | convert to a BMP1, TLL1 and/or TLL2 inhibitor within 24 hours
CCCCC[C@@H](C(=O)NCNC(=O)c1ccc(-c2ccccc2)o1)[C@@H](CC)N(C=O)OCOP(=O)(O)O [Example 200, (4R,5R)-4-ethyl-3-formyl-6,10-dioxo-5-pentyl-10-(5-phenylfuran-2-yl)-2-oxa-3,7,9-triazadecyl Dihydrogen Phosphate, 2Ammonia Salt] | convert to a BMP1, TLL1 and/or TLL2 inhibitor within 24 hours
CCCCC[C@@H](C(=O)NCNC(=O)c1ccc(-c2ccc(C(=O)N[C@@H](CC(=O)O)C(=O)O)c(OCC(=O)O)c2)o1)[C@@H](CC)N(C=O)OC(=O)c1ccc(OC)cc1OC [Example 44, (S)-2-(2-(carboxymethoxy)-4-(5-((((R)-2-((R)-1-(N-((2,4-dimethoxybenzoyl)oxy)formamido)propyl)heptanamido)methyl)carbamoyl)furan-2-yl)benzamido) succinic acid, 3 Ammonia salt] | convert to a BMP1, TLL1 and/or TLL2 inhibitor within 24 hours
CCCCC[C@@H](C(=O)NCNC(=O)c1ccc(-c2ccc(C(=O)N[C@@H](CC(=O)O)C(=O)O)c(OCC)c2)o1)[C@@H](CC)N(C=O)OC(=O)c1ccc(OC)cc1OC [Example 96, (S)-2-(4-(5-((((R)-2-((R)-1-(N-((2,4-dimethoxybenzoyl)oxy)formamido)propyl)heptanamido)methyl)carbamoyl)furan-2-yl)-2-ethoxybenzamido) succinic acid] | convert to a BMP1, TLL1 and/or TLL2 inhibitor within 24 hours
CCCCC[C@@H](C(=O)NCNC(=O)c1ccc(-c2ccc(C(=O)N[C@@H](CC(=O)O)C(=O)O)c(OCC)c2)o1)[C@@H](CC)N(C=O)OC(=O)c1ccc(-n2cccc2)cc1 [Example 79, (S)-2-(4-(5-((((R)-2-((R)-1-(N-((4-(1H-pyrrol-1-yl)benzoyl)oxy) formamido)propyl)heptanamido)methyl)carbamoyl)furan-2-yl)-2-ethoxybenzamido) succinic acid, 2Ammonia salt] | convert to a BMP1, TLL1 and/or TLL2 inhibitor within 24 hours
CCCCC[C@@H](C(=O)NCNC(=O)c1ccc(-c2ccc(C(=O)N[C@@H](CC(=O)O)C(=O)O)c(OCC)c2)o1)[C@@H](CC)N(C=O)OC(=O)C1CCNCC1 [Example 118, (S)-2-(2-ethoxy-4-(5-((((R)-2-((R)-1-(N-((piperidine-4-carbonyl)oxy) formamido)propyl)heptanamido)methyl)carbamoyl)furan-2-yl)benzamido) succinic acid, Trifluoroacetic acid salt] | convert to a BMP1, TLL1 and/or TLL2 inhibitor within 24 hours
CCCCC[C@@H](C(=O)NCNC(=O)c1ccc(-c2ccc(C(=O)N[C@@H](CC(=O)O)C(=O)O)c(OCC(=O)O)c2)o1)[C@@H](CC)N(C=O)OC(=O)c1cccc(C(=O)O)c1 [Example 17, (S)-2-(4-(5-((((R)-2-((R)-1-(N-((3-carboxybenzoyl)oxy) formamido)propyl)heptanamido)methyl)carbamoyl)furan-2-yl)-2-(carboxymethoxy)benzamido)succinic acid] | convert to a BMP1, TLL1 and/or TLL2 inhibitor within 24 hours
